Test results from article PMC6818788.

Target: T1, Flag-IRF7 (mouse) (UniProt P70434)
T1 sequence: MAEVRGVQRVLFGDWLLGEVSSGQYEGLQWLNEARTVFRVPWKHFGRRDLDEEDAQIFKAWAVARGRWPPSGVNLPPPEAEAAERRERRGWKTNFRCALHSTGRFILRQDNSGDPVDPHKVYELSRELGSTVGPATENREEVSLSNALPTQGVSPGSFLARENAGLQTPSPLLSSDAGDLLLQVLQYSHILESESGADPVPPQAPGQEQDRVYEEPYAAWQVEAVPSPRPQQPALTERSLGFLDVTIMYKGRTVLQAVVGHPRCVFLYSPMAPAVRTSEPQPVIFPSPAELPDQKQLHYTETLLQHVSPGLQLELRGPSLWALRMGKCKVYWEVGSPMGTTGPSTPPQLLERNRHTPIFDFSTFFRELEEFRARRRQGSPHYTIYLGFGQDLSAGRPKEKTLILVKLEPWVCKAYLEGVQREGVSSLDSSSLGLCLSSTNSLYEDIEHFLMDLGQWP
Assay: co-IP; HEK293T cells co-transfected with Flag-IRF7 and HA-tagged p200 family protein or mutant; lysate immunoprecipitated with anti-Flag, immunoblot with anti-HA

Row | binding | Substance
1 | binds | HA-IFI205 (mouse)
2 | binds | HA-IFI16β (human)

Results are given in words; binding and its absence hold for the method and conditions named. In cells and extracts the contact can be indirect. Binding can be weak; no strength is given. Where a sequence is shown, tags or fusion partners need not be part of it.
